No constants are given. Whether binding was seen depends on the method and setting. Some entries that bind do so weakly or less than the wild type.
Target: TPP-2618, TweakR-ECD-34-68-hIgGFc-His-R56A (human)
Assay: ELISA, IgG coated at 1 µg/ml, 8-fold diluted HEK293 supernatant with the TWEAKR(34-68)-Fc mutein, anti-HIS-HRP, Amplex Red

B1: TPP-2090 (antibody, human IgG1, kappa, V domains shown)
VH: EVQLLESGGGLVQPGGSLRLSCAASGFTFSPYPMIWVRQAPGKGLEWVSYISPSGGSTHYADSVKGRFTISRDNSKNTLYLQMNSLRAEDTAVYYCARGGDTYFDYFDYWGQGTLVTVSS
VL: DIQMTQSPSSLSASVGDRVTITCRASQSISGYLNWYQQKPGKAPKLLIYQASSLQSGVPSRFSGSGSGTDFTLTISSLQPEDFATYYCQQSYTSPFITFGQGTKVEIKR
Q: Which binding does the source give for B1 here?
A: binds
